The list shows a part of the results. Residues, ends and D or L forms follow the SMILES beside them. *: point of attachment. Cbz = O=C(OCc1ccccc1)*
Assays:
Test in all cases: log2 fold change, soluble protein after heating vs DMSO (PISA); higher = thermal stabilisation; K562 cells, 10 uM, 30 min; active = over 0.2 and 3.5 SD of the protein, either way, in both replicates (recomputed)
IRAK-1-4 Inhibitor I = compound: C1COCCN1CCN2C3=CC=CC=C3N=C2NC(=O)C4=CC(=CC=C4)[N+](=O)[O-] [IRAK-1-4 Inhibitor I]
In short: (§1)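 K562 cells at 2×10^6 cells/mL were treated for 30 min with 10 μM compound, and aliquots were heated for 3 min over 48°C-58°C before pooling. Extraction used PBS with 0.5% NP-40 at 4°C, and soluble protein was the supernatant after 21,000xg for 90 min, measured by TMTpro 16plex LC-MS/MS with channel sums equalised. Thermal stability values, relative to control samples and from duplicates, are log2 fold changes.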

Amino acid sequences for entries named in this document (tags omitted). A change or cut given only in a name is not applied to a line headed by its entry.
UniProt Q9UJX4, whole entry, looked up: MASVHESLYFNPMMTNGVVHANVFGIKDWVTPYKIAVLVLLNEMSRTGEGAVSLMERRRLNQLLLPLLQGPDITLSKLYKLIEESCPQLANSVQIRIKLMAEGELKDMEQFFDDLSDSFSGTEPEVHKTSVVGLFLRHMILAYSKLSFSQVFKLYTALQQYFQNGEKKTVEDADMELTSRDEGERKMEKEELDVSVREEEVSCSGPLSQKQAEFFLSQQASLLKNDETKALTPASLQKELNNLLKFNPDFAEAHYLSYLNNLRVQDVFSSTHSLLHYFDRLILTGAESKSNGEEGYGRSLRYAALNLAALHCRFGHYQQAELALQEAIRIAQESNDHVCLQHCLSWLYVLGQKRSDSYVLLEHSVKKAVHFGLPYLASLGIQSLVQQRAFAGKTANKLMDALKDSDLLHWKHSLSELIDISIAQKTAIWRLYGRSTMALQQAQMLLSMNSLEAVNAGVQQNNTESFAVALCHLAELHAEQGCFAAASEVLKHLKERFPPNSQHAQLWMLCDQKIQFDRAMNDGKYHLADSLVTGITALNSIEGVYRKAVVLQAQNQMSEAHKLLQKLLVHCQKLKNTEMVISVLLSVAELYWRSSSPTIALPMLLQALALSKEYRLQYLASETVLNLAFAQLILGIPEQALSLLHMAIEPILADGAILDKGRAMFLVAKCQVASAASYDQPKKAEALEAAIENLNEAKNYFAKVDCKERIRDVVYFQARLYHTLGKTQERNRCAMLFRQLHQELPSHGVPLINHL
UniProt P13798: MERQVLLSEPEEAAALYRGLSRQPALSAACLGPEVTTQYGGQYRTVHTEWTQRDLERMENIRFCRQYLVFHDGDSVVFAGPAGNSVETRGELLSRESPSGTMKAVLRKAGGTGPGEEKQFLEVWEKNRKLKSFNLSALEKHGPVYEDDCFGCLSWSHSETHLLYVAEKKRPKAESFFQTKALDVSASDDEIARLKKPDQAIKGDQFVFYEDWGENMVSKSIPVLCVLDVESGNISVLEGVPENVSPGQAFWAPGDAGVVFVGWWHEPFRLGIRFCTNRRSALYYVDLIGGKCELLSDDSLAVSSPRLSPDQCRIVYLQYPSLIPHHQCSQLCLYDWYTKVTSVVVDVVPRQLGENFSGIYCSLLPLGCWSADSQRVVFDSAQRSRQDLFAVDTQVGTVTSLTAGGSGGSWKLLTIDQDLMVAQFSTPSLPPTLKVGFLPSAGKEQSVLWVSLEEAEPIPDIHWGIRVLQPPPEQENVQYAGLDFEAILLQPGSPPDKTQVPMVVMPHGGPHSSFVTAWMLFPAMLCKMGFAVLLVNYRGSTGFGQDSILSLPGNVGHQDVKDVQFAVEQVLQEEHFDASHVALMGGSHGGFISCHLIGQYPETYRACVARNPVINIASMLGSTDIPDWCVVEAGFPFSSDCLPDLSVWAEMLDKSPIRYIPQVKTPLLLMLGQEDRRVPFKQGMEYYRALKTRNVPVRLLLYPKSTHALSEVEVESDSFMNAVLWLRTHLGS
UniProt P52565: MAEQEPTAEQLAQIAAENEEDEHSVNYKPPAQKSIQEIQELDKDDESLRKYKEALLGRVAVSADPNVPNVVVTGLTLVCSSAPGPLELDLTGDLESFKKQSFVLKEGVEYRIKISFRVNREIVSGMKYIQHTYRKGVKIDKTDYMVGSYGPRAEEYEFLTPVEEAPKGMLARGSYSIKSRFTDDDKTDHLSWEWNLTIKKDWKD
UniProt Q63HQ0: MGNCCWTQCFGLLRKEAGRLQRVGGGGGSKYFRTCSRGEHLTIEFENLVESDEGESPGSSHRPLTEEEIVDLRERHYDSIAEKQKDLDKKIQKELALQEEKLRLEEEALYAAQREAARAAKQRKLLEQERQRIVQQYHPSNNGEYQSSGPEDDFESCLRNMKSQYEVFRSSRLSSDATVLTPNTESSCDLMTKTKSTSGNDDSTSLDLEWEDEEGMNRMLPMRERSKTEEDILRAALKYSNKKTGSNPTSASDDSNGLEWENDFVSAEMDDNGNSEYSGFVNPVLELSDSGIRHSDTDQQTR
UniProt P78540: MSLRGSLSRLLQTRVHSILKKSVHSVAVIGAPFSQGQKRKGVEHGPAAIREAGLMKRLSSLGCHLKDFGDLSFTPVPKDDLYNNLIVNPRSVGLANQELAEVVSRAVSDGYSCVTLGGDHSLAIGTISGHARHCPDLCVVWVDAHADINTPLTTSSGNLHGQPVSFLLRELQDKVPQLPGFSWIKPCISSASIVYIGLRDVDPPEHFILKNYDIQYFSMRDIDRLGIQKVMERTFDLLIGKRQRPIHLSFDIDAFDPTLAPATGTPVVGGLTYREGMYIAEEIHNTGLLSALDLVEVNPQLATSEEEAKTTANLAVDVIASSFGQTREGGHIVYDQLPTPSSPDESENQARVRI
UniProt Q9Y6D5: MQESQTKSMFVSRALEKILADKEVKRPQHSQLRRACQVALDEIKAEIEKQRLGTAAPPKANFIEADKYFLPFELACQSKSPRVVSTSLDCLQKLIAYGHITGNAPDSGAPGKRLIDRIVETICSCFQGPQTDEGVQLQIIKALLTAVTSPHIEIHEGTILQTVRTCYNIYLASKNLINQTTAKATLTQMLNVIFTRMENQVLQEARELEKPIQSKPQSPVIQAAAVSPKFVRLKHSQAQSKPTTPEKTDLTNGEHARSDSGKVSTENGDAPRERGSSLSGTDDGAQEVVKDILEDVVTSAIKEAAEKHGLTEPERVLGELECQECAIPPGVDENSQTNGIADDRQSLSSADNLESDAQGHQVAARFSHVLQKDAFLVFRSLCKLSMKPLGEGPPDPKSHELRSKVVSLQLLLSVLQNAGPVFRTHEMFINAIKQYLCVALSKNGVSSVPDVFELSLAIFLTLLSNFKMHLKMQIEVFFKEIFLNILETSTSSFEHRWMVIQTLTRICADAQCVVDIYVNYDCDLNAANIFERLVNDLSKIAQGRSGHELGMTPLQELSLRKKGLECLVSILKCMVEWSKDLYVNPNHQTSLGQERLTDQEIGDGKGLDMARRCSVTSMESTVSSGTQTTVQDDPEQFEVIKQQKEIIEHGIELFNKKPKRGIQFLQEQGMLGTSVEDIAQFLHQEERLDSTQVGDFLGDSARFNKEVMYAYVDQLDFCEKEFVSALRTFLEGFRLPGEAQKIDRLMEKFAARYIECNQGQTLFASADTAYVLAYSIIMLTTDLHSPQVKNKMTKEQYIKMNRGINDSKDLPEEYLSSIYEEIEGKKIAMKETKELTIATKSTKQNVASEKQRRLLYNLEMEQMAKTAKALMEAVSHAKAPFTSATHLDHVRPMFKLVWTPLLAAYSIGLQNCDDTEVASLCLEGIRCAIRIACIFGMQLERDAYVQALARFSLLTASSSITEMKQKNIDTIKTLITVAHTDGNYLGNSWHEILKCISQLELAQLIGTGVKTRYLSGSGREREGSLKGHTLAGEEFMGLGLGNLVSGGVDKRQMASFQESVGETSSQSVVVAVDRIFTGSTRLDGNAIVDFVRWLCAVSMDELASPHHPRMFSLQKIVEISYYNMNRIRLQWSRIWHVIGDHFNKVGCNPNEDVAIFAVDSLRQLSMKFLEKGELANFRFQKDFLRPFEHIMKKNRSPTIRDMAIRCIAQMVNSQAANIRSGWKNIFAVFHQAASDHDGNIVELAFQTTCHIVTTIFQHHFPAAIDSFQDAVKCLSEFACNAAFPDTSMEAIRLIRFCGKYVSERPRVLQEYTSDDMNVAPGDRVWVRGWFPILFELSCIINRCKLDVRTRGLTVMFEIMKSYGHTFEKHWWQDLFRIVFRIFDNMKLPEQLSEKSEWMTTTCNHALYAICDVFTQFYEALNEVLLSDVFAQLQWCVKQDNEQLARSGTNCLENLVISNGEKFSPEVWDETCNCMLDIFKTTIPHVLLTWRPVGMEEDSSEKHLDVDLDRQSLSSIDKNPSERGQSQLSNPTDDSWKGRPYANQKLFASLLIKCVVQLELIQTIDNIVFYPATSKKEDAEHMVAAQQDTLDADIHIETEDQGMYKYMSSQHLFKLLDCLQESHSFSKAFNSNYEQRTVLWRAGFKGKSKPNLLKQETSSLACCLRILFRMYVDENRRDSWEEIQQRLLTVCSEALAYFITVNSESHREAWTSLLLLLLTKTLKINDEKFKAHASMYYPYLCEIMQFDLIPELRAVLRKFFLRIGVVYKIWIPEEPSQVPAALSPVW
UniProt Q9BXS5: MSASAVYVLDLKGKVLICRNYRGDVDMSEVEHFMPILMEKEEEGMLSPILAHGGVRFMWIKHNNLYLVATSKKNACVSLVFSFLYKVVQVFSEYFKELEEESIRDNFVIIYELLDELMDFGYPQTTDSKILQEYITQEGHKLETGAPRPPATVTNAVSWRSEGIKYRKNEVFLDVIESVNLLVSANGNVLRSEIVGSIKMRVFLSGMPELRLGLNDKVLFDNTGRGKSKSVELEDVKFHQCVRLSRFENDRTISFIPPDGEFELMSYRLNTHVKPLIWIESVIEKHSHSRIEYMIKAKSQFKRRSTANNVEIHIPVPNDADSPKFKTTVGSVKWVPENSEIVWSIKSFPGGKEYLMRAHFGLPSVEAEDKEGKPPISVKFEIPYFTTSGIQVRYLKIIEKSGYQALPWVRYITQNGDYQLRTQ
UniProt Q6NXT1: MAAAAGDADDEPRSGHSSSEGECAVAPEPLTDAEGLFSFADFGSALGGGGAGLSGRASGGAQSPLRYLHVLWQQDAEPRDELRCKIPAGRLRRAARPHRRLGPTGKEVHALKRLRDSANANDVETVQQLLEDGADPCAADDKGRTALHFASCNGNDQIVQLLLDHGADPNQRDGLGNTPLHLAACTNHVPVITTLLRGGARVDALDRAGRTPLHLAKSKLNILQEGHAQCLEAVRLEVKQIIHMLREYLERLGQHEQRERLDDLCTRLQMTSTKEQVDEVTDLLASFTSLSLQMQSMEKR
UniProt Q96GX9: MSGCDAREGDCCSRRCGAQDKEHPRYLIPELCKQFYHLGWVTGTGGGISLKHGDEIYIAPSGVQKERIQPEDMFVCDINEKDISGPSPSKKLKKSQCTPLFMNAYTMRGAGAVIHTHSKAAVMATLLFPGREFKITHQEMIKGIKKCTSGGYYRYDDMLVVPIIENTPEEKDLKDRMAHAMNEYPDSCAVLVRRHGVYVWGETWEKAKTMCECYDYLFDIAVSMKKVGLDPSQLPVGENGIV
UniProt P08133: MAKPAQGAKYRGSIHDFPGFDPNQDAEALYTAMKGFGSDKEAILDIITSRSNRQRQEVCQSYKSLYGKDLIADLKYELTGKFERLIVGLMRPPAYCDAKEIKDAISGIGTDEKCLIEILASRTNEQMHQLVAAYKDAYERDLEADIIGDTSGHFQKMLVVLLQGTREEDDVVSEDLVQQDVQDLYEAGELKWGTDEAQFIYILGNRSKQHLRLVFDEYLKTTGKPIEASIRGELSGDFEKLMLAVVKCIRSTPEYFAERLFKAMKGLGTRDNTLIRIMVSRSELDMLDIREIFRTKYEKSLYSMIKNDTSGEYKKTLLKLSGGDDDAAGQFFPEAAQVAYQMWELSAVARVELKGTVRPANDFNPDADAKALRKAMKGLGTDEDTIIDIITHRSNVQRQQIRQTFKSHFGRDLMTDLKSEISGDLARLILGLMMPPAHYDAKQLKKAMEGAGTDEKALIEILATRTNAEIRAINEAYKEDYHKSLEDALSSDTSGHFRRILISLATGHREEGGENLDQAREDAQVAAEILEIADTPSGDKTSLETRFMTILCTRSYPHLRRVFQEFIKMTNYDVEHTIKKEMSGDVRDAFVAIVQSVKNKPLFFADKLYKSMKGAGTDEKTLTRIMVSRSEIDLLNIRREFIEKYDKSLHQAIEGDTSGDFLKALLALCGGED
UniProt P58335, whole entry, looked up: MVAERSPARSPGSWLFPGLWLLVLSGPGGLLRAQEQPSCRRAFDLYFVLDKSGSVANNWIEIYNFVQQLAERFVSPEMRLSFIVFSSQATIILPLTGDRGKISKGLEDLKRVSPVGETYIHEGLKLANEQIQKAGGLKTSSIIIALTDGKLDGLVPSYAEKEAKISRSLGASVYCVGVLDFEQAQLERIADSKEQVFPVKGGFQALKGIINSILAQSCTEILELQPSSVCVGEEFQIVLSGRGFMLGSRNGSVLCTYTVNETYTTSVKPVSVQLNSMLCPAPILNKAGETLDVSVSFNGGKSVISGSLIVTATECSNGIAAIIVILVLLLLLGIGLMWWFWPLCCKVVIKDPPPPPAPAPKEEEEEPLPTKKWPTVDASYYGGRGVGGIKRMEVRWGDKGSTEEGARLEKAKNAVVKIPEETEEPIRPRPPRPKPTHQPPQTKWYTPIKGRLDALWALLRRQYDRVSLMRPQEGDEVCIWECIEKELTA
UniProt P53365: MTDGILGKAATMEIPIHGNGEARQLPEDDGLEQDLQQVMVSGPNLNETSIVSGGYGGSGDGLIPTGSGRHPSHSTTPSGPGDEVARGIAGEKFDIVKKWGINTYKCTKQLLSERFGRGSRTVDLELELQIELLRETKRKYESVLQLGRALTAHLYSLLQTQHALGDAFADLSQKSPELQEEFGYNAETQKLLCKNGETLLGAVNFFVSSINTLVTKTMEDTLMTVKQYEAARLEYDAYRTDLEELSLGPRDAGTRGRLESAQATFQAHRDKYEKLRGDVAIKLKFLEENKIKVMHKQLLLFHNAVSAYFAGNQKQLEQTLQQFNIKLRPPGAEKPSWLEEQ

ibrutinib = compound: C=CC(=O)N1CCC[C@@H](n2nc(-c3ccc(Oc4ccccc4)cc3)c3c(N)ncnc32)C1 [ibrutinib]
In short: as §1

[1] = compound: CC(=O)c1cnc2ccc(-c3cc(Cl)c(O)c(Cl)c3)nc2c1N[C@H]1CC[C@H](CN(C)C)CC1
In short: as §1

ralimetinib = compound: CC(C)(C)Cn1c(N)nc2ccc(-c3[nH]c(C(C)(C)C)nc3-c3ccc(F)cc3)nc21 [ralimetinib]
In short: as §1

[2] = compound: CC(C)(O)CC(=O)NCCn1ccc2ncnc(Nc3ccc(Oc4cccc(C(F)(F)F)c4)c(Cl)c3)c21
In short: as §1

[3] = compound: CC(C)C1=C2N=C(C=C(N2N=C1)NCC3=CC=CC=C3)NCCCCCCN
In short: as §1

[4] = compound: CC(C)C[C@@H](C=O)NC(=O)[C@H](CC(C)C)NC(=O)[C@H](CC(C)C)NC(=O)OCc1ccccc1
In short: as §1

pinometostat = compound: CC(C)N(C[C@H]1O[C@@H](n2cnc3c(N)ncnc32)[C@H](O)[C@@H]1O)[C@H]1C[C@@H](CCc2nc3cc(C(C)(C)C)ccc3[nH]2)C1 [pinometostat]
In short: as §1

[5] = compound: CC1=C(C(CC(=O)N1)C2=CC=C(C=C2)C(F)(F)F)C(=O)NC3=C(C=C4C(=C3)C=NN4)F
In short: as §1

[6] = compound: CC1=C(C2=C(C=C1)C(=O)C3=CC=CC=C3N2CCCN)C
In short: as §1

Measured: log2 fold change

ARHGEF7 isoform 5 (UniProt Q14155)
inactive: IRAK-1-4 Inhibitor I -0.135 | ibrutinib 0.006 | [1] -0.21 | ralimetinib 0.12 | [2] -0.165 | [3] -0.18 | [4] 0.04 | pinometostat 0.142 | [5] -0.017 | [6] 0.026

ANAPC16 (UniProt Q96DE5)
inactive: IRAK-1-4 Inhibitor I 0.011 | ibrutinib 0.015 | [1] -0.159 | ralimetinib 0.019 | [2] -0.052 | [3] -0.041 | [4] 0.025 | pinometostat -0.24 | [5] 0.026 | [6] 0.193

ANAPC5 (UniProt Q9UJX4)
inactive: IRAK-1-4 Inhibitor I -0.037 | ibrutinib -0.026 | [1] -0.028 | ralimetinib 0.043 | [2] 0.006 | [3] -0.008 | [4] 0.053 | pinometostat 0.085 | [5] -0.027 | [6] -0.06

APEH (UniProt P13798)
inactive: IRAK-1-4 Inhibitor I 0.034 | ibrutinib 0 | [1] 0.004 | ralimetinib -0.036 | [2] 0.001 | [3] 0.048 | [4] -0.021 | pinometostat -0.016 | [5] -0.004 | [6] 0.018

AP1B1 (UniProt Q10567)
inactive: IRAK-1-4 Inhibitor I -0.008 | ibrutinib 0.001 | [1] 0.031 | ralimetinib 0.034 | [2] -0.026 | [3] -0.041 | [4] -0.047 | pinometostat 0.007 | [5] 0 | [6] 0

ARHGDIA (UniProt P52565)
inactive: IRAK-1-4 Inhibitor I 0.023 | ibrutinib -0.015 | [1] 0.024 | ralimetinib -0.021 | [2] -0.039 | [3] 0.104 | [4] -0.007 | pinometostat -0.016 | [5] -0.032 | [6] -0.008

APOO (UniProt Q9BUR5)
inactive: IRAK-1-4 Inhibitor I 0.026 | ibrutinib -0.006 | [1] 0.003 | ralimetinib -0.026 | [2] -0.058 | [3] -0.053 | [4] -0.031 | pinometostat -0.029 | [5] -0.012 | [6] -0.006

AP1AR (UniProt Q63HQ0)
inactive: IRAK-1-4 Inhibitor I -0.01 | ibrutinib 0.035 | [1] 0.013 | ralimetinib -0.049 | [2] 0.009 | [3] -0.042 | [4] 0.016 | pinometostat -0.058 | [5] 0.059 | [6] -0.013

ANTKMT (UniProt Q9BQD7)
inactive: IRAK-1-4 Inhibitor I 0.068 | ibrutinib 0.086 | [1] -0.074 | ralimetinib -0.204 | [2] -0.051 | [3] -0.108 | [4] 0.05 | pinometostat -0.204 | [5] -0.05 | [6] 0.154

APOA1 (UniProt P02647)
inactive: IRAK-1-4 Inhibitor I 0.018 | ibrutinib 0.221 | [1] 0.007 | ralimetinib -0.139 | [2] 0.25 | [3] 0.12 | [4] -0.006 | pinometostat -0.035 | [5] -0.123 | [6] -0.083

ARHGAP17 (UniProt Q68EM7)
inactive: IRAK-1-4 Inhibitor I -0.113 | ibrutinib -0.05 | [1] 0.075 | ralimetinib 0.081 | [2] -0.04 | [3] -0.294 | [4] 0.102 | pinometostat 0.157 | [5] -0.027 | [6] 0.064

ANXA1 (UniProt P04083)
inactive: IRAK-1-4 Inhibitor I -0.049 | ibrutinib -0.042 | [1] -0.001 | ralimetinib 0.02 | [2] -0.119 | [3] -0.156 | [4] 0.008 | pinometostat -0.01 | [5] 0.019 | [6] -0.012

ARG2 (UniProt P78540)
inactive: IRAK-1-4 Inhibitor I 0.09 | ibrutinib 0.025 | [1] 0.016 | ralimetinib -0.013 | [2] -0.015 | [3] -0.009 | [4] 0.002 | pinometostat -0.068 | [5] 0.012 | [6] -0.052

ARFGEF2 (UniProt Q9Y6D5)
inactive: IRAK-1-4 Inhibitor I -0.021 | ibrutinib -0.031 | [1] 0.047 | ralimetinib 0.002 | [2] 0.001 | [3] -0.058 | [4] 0.026 | pinometostat 0.052 | [5] -0.051 | [6] -0.026

ANAPC7 (UniProt Q9UJX3)
inactive: IRAK-1-4 Inhibitor I -0.047 | ibrutinib 0 | [1] 0.004 | ralimetinib 0.093 | [2] -0.014 | [3] -0.035 | [4] 0.033 | pinometostat 0.038 | [5] 0.025 | [6] -0.053

AP1M1 (UniProt Q9BXS5)
inactive: IRAK-1-4 Inhibitor I -0.014 | ibrutinib -0.029 | [1] 0.019 | ralimetinib -0.002 | [2] -0.021 | [3] -0.001 | [4] -0.048 | pinometostat 0.035 | [5] -0.01 | [6] -0.026

ANKRD54 (UniProt Q6NXT1)
inactive: IRAK-1-4 Inhibitor I 0.004 | ibrutinib 0.087 | [1] -0.106 | ralimetinib 0.027 | [2] -0.063 | [3] -0.005 | [4] -0.041 | pinometostat 0.048 | [5] -0.042 | [6] -0.085

Reprinted at random: 2 records from the list.
ARG2 (UniProt P78540)
inactive: IRAK-1-4 Inhibitor I 0.09 | ibrutinib 0.025 | [1] 0.016 | ralimetinib -0.013 | [2] -0.015 | [3] -0.009 | [4] 0.002 | pinometostat -0.068 | [5] 0.012 | [6] -0.052

ARFGEF2 (UniProt Q9Y6D5)
inactive: IRAK-1-4 Inhibitor I -0.021 | ibrutinib -0.031 | [1] 0.047 | ralimetinib 0.002 | [2] 0.001 | [3] -0.058 | [4] 0.026 | pinometostat 0.052 | [5] -0.051 | [6] -0.026

Additional entries follow.

APIP (UniProt Q96GX9)
inactive: IRAK-1-4 Inhibitor I 0.05 | ibrutinib 0.033 | [1] 0.012 | ralimetinib -0.033 | [2] -0.045 | [3] 0.073 | [4] 0.034 | pinometostat -0.046 | [5] 0.046 | [6] 0.024

AP3B1 (UniProt O00203)
inactive: IRAK-1-4 Inhibitor I -0.024 | ibrutinib -0.024 | [1] -0.01 | ralimetinib 0.06 | [2] -0.071 | [3] -0.055 | [4] 0.004 | pinometostat 0.023 | [5] -0.004 | [6] -0.012

AP1S1 (UniProt P61966)
inactive: IRAK-1-4 Inhibitor I 0.001 | ibrutinib -0.038 | [1] 0.013 | ralimetinib 0.029 | [2] -0.02 | [3] -0.038 | [4] 0.034 | pinometostat 0.021 | [5] -0.061 | [6] 0.004

AP3S1 (UniProt Q92572)
inactive: IRAK-1-4 Inhibitor I -0.035 | ibrutinib -0.052 | [1] 0 | ralimetinib 0.012 | [2] -0.038 | [3] -0.038 | [4] 0.023 | pinometostat 0.02 | [5] 0.007 | [6] -0.036

API5 isoform 2 (UniProt Q9BZZ5)
inactive: IRAK-1-4 Inhibitor I 0.024 | ibrutinib 0.017 | [1] -0.12 | ralimetinib -0.018 | [2] 0.085 | [3] 0.07 | [4] 0.008 | pinometostat -0.047 | [5] 0.018 | [6] 0.063

ANXA6 (UniProt P08133)
inactive: IRAK-1-4 Inhibitor I -0.02 | ibrutinib -0.007 | [1] 0.001 | ralimetinib -0.018 | [2] -0.04 | [3] -0.055 | [4] 0.122 | pinometostat 0.078 | [5] 0.012 | [6] -0.001

APOOL (UniProt Q6UXV4)
inactive: IRAK-1-4 Inhibitor I 0.08 | ibrutinib 0.041 | [1] 0.032 | ralimetinib -0.019 | [2] -0.009 | [3] 0.086 | [4] -0.012 | pinometostat 0.015 | [5] -0.011 | [6] -0.016

ANP32B (UniProt Q92688)
inactive: IRAK-1-4 Inhibitor I 0.057 | ibrutinib -0.042 | [1] -0.069 | ralimetinib -0.051 | [2] 0.013 | [3] -0.061 | [4] -0.01 | pinometostat -0.023 | [5] 0.039 | [6] -0.067

ANTXR2 isoform 4 (UniProt P58335)
inactive: IRAK-1-4 Inhibitor I 0.092 | ibrutinib 0.026 | [1] -0.048 | ralimetinib -0.085 | [2] 0.055 | [3] 0.075 | [4] 0.044 | pinometostat -0.021 | [5] -0.011 | [6] -0.038

ARFIP2 (UniProt P53365)
inactive: IRAK-1-4 Inhibitor I 0.045 | ibrutinib -0.034 | [1] -0.034 | ralimetinib -0.113 | [2] -0.18 | [3] -0.106 | [4] 0.038 | pinometostat 0.114 | [5] 0.116 | [6] 0.016

— the supplement of paper PMC10849652
